Test results: PMC8608904
These are yes or no findings as the source states them, for the method shown. Binding seen in cells or lysates may run through a third protein. Some entries that bind do so weakly or less than the wild type.

The chains behind the UniProt entries cited, without tags or fusion partners.
UniProt Q91YH6: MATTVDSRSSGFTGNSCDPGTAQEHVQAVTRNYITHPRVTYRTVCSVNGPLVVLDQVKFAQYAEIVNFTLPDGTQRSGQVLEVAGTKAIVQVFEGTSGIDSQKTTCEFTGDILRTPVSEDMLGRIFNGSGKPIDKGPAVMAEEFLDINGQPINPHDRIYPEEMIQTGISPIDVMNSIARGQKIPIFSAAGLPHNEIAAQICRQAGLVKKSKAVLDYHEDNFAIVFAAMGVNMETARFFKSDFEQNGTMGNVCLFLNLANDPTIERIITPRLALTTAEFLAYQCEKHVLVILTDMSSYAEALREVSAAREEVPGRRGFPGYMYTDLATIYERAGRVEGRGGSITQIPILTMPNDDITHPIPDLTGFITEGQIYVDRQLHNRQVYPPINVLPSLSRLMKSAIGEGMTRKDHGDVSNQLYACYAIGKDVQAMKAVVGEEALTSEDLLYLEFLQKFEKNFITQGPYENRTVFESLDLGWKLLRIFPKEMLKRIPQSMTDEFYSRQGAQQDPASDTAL

What was measured:
Assay in all cases: pull-down; about 14 pmol purified GST-tagged bait on glutathione-Sepharose 4B beads, incubated with mouse kidney lysate (25 mM Tris-HCl pH 7.4, 150 mM NaCl, 5 mM EDTA, 1% Triton X-100); western blot with anti-B1; only the target purified
[1] = target: T1, C-terminal Ncoa7 (593–943) (mouse) (UniProt Q6DFV7)
T1 sequence: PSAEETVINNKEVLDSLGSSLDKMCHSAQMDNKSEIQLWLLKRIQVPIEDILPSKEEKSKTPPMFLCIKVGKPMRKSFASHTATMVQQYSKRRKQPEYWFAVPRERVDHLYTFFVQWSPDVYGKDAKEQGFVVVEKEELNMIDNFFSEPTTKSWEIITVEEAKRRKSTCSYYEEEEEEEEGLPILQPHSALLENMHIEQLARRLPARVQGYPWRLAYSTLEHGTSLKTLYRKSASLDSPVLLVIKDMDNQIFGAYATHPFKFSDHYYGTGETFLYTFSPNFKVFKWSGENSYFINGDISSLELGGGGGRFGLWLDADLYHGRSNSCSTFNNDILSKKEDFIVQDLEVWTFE

[2] = target: T2, G802A mutant of the TLDc domain of Ncoa7 (775–943) (mouse) (UniProt Q6DFV7)
T2 sequence: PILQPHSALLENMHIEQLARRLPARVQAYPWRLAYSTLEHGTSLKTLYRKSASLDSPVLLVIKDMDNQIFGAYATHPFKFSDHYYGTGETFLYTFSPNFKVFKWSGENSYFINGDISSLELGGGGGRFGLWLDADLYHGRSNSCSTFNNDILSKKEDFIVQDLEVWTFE

[3] = target: T3, Oxr1 TLDc domain (698–866) (mouse) (UniProt Q4KMM3)
T3 sequence: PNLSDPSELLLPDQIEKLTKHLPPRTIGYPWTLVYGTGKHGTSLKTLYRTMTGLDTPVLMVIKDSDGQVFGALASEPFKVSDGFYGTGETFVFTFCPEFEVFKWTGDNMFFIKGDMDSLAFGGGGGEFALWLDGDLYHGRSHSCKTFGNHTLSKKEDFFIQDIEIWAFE

Measured: binding

B1 subunit of V-ATPase (from UniProt Q91YH6 1-513)
binds: [1] | [2] | [3]
